Laboratory results reported in article PMC7264150 (Nature Communications, 2020).
These are yes or no findings as the source states them, for the method shown. Some results given as binding are weak or reduced against the parent protein; the word gives no strength.

Chains of the proteins cited; added tags and fusions are not shown.
UniProt Q9RN43: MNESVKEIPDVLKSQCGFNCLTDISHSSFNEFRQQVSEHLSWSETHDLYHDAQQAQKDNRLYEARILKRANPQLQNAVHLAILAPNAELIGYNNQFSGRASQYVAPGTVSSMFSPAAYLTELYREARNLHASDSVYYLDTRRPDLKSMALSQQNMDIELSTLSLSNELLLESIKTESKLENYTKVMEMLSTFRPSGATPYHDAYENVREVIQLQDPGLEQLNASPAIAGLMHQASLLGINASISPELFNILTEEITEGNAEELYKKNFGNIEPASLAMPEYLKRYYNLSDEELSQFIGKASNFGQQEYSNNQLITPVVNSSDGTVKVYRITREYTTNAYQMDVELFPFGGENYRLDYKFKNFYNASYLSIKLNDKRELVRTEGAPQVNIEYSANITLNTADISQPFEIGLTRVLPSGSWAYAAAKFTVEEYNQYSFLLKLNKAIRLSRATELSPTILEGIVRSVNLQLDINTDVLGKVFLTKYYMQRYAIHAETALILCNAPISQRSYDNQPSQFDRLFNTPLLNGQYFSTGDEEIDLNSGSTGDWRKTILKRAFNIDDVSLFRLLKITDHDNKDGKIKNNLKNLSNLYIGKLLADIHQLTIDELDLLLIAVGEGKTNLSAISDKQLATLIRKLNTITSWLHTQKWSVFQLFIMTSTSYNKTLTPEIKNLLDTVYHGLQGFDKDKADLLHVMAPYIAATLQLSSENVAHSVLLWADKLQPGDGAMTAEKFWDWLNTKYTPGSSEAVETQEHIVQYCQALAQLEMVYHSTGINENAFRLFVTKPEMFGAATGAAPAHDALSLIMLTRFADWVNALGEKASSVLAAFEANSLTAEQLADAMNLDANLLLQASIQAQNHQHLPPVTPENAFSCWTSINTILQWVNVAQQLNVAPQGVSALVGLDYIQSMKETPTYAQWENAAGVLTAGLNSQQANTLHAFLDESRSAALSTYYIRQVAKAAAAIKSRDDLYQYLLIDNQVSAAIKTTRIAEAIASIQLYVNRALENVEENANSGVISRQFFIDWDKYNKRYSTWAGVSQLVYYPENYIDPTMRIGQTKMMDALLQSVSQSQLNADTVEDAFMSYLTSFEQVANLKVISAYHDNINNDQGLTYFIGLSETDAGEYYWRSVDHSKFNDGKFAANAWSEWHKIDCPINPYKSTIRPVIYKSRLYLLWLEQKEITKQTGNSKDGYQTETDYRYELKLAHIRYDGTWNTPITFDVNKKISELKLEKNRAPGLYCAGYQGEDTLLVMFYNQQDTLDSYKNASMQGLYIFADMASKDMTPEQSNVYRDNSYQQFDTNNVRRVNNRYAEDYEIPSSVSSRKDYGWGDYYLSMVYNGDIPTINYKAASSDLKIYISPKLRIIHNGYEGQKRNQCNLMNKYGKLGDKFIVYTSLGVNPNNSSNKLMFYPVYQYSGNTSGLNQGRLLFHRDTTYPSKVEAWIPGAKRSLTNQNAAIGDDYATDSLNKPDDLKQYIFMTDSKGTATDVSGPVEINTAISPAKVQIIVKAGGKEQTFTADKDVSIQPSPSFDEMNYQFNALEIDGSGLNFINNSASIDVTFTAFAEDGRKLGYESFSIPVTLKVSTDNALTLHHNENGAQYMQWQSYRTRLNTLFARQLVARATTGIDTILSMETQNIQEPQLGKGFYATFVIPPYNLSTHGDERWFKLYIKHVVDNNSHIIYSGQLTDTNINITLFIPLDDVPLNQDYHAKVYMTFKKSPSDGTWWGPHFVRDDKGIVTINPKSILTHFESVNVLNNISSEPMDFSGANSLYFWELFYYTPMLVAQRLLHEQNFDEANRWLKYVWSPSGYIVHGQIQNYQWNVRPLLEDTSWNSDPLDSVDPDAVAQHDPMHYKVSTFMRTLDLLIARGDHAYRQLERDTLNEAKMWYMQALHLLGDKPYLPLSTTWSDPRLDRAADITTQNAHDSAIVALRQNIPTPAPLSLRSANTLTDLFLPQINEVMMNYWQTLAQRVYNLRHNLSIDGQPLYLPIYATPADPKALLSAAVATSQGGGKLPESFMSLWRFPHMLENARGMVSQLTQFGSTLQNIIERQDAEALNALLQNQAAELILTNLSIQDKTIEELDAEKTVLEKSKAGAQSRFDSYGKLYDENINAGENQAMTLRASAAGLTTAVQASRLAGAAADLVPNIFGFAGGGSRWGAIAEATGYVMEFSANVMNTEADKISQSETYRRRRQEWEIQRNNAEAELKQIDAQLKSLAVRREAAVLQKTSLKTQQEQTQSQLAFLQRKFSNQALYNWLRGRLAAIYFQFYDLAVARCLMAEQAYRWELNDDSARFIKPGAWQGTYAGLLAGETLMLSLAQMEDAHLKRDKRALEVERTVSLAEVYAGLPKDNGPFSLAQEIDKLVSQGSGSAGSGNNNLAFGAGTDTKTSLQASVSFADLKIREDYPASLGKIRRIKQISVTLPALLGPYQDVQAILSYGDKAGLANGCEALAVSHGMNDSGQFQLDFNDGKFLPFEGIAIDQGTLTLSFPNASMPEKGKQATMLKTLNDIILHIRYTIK

Target: Photorhabdus luminescens TcdA1 (Photorhabdus luminescens) (UniProt Q9RN43)
Test: cryo-EM structure; both purified

Question: Which binding does the source give for “Photorhabdus luminescens TcdA1 (from UniProt Q9RN43 1-2516)” here?
Answer: Its binding is “binds”.
